Measurements as given in PubChem BioAssay AID2551 (National Center for Advancing Translational Sciences (NCATS), 2010).
Among all 310,000 compounds or so, about 17,000 (5.5%) were called active. The inconclusive results got no clear call from the source; some entries with a clear call stand among them for comparison. The call rests on the fitted dose curve; in most records, active means well fitted inhibition curve with a large enough effect; inconclusive means small, poorly fitted or top-dose-only effect, or effect the other way; inactive means no such curve, though single readings can be large or run the other way. Potencies of inconclusive entries are doubtful fits and often do not repeat.

Sequences of proteins named here, by UniProt entry; tags and fusion partners are left off. A change or cut given only in a name is not applied to a line headed by its entry.
UniProt P51450: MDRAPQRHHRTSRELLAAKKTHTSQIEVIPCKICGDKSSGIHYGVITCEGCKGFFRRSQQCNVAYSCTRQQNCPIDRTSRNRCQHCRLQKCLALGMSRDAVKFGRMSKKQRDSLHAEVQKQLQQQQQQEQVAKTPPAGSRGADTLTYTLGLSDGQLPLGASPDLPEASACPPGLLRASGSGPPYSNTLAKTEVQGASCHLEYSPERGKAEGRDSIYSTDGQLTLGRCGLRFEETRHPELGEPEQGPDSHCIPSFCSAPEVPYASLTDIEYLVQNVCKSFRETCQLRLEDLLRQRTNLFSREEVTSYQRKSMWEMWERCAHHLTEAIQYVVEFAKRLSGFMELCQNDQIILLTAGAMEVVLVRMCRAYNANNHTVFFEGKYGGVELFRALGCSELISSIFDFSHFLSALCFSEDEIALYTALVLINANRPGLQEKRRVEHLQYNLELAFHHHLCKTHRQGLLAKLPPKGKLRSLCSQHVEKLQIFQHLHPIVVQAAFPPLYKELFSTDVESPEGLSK

biological target: Nuclear receptor ROR-gamma (Mus musculus) (UniProt P51450); experiment: qHTS for inhibitors of ROR gamma transcriptional activity; details: Drosophila S2 Gal4-RORgamma UAS-luciferase reporter, 20 h; activity change, negative = inhibition: at 53.6 µM (top of the series); further: nearly all actives have a fitted effect of over 60% in size
Procedure, shortened: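 Drosophila S2 cells stably expressing Gal4-DBD/mouse RORγ fusion under metallothionein promoter plus UAS-luciferase; compound 1 h, then 700 uM CuSO4 induction for 20 h at ambient temperature; inhibition read as reduced luminescence.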
On the % scale 0 is the no-effect control and ±100 the full control effect; potency means the concentration at half of the fitted maximal effect.

Structure (SMILES)	Potency	activity change, negative = inhibition
FC(F)(F)c1cccc(CNC2c3ccccc3-c3ccccc32)c1	inactive	–
O=C1/C(=C/c2cccnc2)SC(=S)N1c1ccccc1	inconclusive: 2.24 µM [inhibitor, full curve, poor fit]	–
O=C(COC(=O)c1ccc(O)cc1)Nc1ncc(Cl)cc1Cl	inconclusive: 3.16 µM [activator, partial curve, poor fit]	–
CCOC(=O)N1CCc2c(sc3c2c(=O)n(Cc2ccccc2)c(=O)n3Cc2ccccc2F)C1	inconclusive: 10 µM [activator, partial curve]	–
CC(/C=N/NC(=O)c1cc(-c2ccc3ccccc3c2)n[nH]1)=C\c1ccco1	inconclusive: 11.2 µM [activator, partial curve]	–
COc1cc(NC(=O)c2cccs2)c(OC)cc1NC(=O)CCC(=O)Nc1ccc2ncccc2c1	inconclusive: 15.8 µM [inhibitor, single point]	–
O=C(NP(=O)(N1CCCC1)N1CCCC1)C1=C(N2CCOCC2)/C(=C/c2cccc([N+](=O)[O-])c2)CC1	inactive	–
O=C(c1cccc(F)c1)N1CCC2(CCCN(c3ccncc3)C2)CC1	inactive	–
COc1cccc(C=NCCNC(=O)c2nonc2N)c1O	inconclusive: 17.8 µM [inhibitor, single point]	–
O=C(NCCc1ccc(Cl)cc1)C1CCN(S(=O)(=O)c2cccs2)CC1	inactive	–
O=C(Nc1ccc2ccccc2c1)c1ccc(NS(=O)(=O)c2ccc(Br)s2)cc1	inconclusive: 12.6 µM [activator, partial curve]	–
O=C(CSc1nnc(-c2cccs2)n1-c1ccccc1)c1ccc2c(c1)OCCO2	inactive	–
COc1ccc(C(=O)C2CCCN(Cc3nc4ccccc4nc3C)C2)cc1OC (centres undefined)	inconclusive: 15.8 µM [inhibitor, single point]	–
COc1cc(/C=N/NC(=S)Nc2cccc(C(=O)O)c2)cc(OC)c1OC	inconclusive: 14.1 µM [inhibitor, single point]	–
CC(C)c1ccc2c(c1)C1(NN=C(c3ccccc3)S1)C(=O)N2 (centres undefined)	active: 5.62 µM	–
COc1c(N2CCN(C(=S)NCc3ccccc3)C(C)C2)c(F)cc2c(=O)c(C(=O)O)cn(C3CC3)c12 (centres undefined)	inconclusive: 35.5 µM [activator, single point]	–
Clc1ccc(-c2cn3c(n2)CCC3)cc1	inconclusive: 0.126 µM [activator, full curve, poor fit]	–
CC(C)(C)c1ccc(C(=O)Nc2cccnc2)cc1	inconclusive: 2.24 µM [activator, full curve, poor fit]	–
N#C/C(=C\Nc1ccc2cn[nH]c2c1)c1nc(-c2ccccc2)cs1	inconclusive: 20 µM [inhibitor, single point]	–
N=c1sccn1CC(=O)N1N=C(c2ccc(Cl)cc2)CC1c1ccco1 (centres undefined)	inactive	–
COc1ccccc1C(=O)NNC(=O)C(=O)Nc1ccc(C)c(Cl)c1	inconclusive: 10 µM [inhibitor, partial curve]	–
CCCN1C2CCCC1CC(NC(=S)Nc1cccc(C)c1C)C2 (centres undefined)	inactive	–

Structure (SMILES)	Potency	activity change, negative = inhibition
CCC(=O)N1c2ccc(S(=O)(=O)N(CCO)Cc3ccccc3)cc2CC1C (centres undefined)	inconclusive: 15.8 µM [activator, single point]	–
CCCCN(C)C(=O)C1CCC(CNS(=O)(=O)c2ccc3c(c2)CC(C)N3C(C)=O)CC1 (centres undefined)	inactive	–
COc1ccc(/C=N/n2cnnc2)cc1Oc1nc(Cl)ncc1F	inactive	–
CCOc1ccc(CN(C)C(=O)[C@H](Cc2ccccc2)NC(=O)OCc2ccccc2)cc1OC	inconclusive: 31.6 µM [activator, single point]	–
CN(CCc1ccccc1)C1CCCN(C(=O)Cn2cccn2)C1 (centres undefined)	inactive	–
NC(=S)NNC(=O)/C(=C/c1ccc(Br)cc1)NC(=O)c1ccccc1	inconclusive: 14.1 µM [inhibitor, partial curve]	–
COc1ccc(C(=O)NC(=S)Nc2ccccc2F)cc1	active: 4.47 µM	–
CC/C(=N\NC(=O)C(N)=O)c1ccccc1O	inconclusive: 10 µM [inhibitor, partial curve, poor fit]	–
O=C(CSc1n[nH]c(-c2ccncc2)n1)Nc1ccc(Cl)c(Cl)c1	inconclusive: 3.16 µM [activator, full curve]	–
Cc1ccc(C(=O)CC(=O)COc2ccc(Cl)cc2C)cc1	active: 10 µM	–
CCS(=O)(=O)c1ccc2oc(SCC(=O)NCc3ccccc3)nc2c1	inconclusive: 22.4 µM [activator, single point]	–
Cc1ccc(C2CC(c3cccs3)=NN2C(=O)CSC2=NN3CCCC(=O)N=C3S2)cc1 (centres undefined)	inactive	–
Cc1ccc2sc(N(CCCN(C)C)C(=O)CN3C(=O)c4ccccc4C3=O)nc2c1C	inconclusive: 35.5 µM [inhibitor, single point]	–
O=C(CSc1nc2cc(Cl)ccc2s1)N1CCN(C(=O)c2ccco2)CC1	inconclusive: 35.5 µM [activator, single point]	–
O=C1[C@H]2[C@H]3[C@H](O)[C@H](O)C/C(=N/OC[C@@H](O)COCc4ccco4)[C@@H]3CC[C@@H]2C(=O)N1Cc1ccc2c(c1)OCO2	–	inactive: 5.75% [at 10 µM]
COc1ccc(C[C@H](N)C(=O)N[C@@H]2[C@H](O)[C@H](n3cnc4c(N(C)C)ncnc43)O[C@@H]2CO)cc1	inconclusive: 14.1 µM [inhibitor, single point]	–
Fc1ccc(OCc2nn[nH]n2)c(F)c1	inconclusive: 35.5 µM [inhibitor, single point]	–
NC(=O)c1nnn(-c2cccc(C(F)(F)F)c2)c1-c1ccccc1	inactive	–
CC(C)(C)N/N=C/c1cc(Cl)cc([N+](=O)[O-])c1O	inactive	–
CCOc1ccc(Cn2c(O)cc(=O)[nH]c2=O)cc1	inconclusive: 35.5 µM [inhibitor, single point]	–
COC(=O)N(/C=C/c1ccc(OC)cc1)CCc1ccc(OC)c(OC)c1	–	inactive: 1.57% [at 10 µM]
Cc1ccc(OCC(=O)Nc2cccc(-c3nnc(-c4ccccc4)o3)c2)c(C)c1	inconclusive: 2.82 µM [activator, partial curve]	–

Gathered by group: the compounds so far with a nitro group on carbon
Structure (SMILES)	Potency	activity change, negative = inhibition
O=C(NP(=O)(N1CCCC1)N1CCCC1)C1=C(N2CCOCC2)/C(=C/c2cccc([N+](=O)[O-])c2)CC1	inactive	–
CC(C)(C)N/N=C/c1cc(Cl)cc([N+](=O)[O-])c1O	inactive	–
